Test results reported in PubChem BioAssay AID743266 (National Center for Advancing Translational Sciences (NCATS), 2014).
Among all 410,000 compounds or so, about 310 (0.076%) were called active. The inconclusive results got no clear call from the source; some entries with a clear call stand among them for comparison. Calls follow the shape of the dose curve; as a rule, active = well fitted activation curve with a large enough effect; inconclusive = small, poorly fitted or top-dose-only effect, or another doubt; inactive = no such curve, though single readings can be large or run the other way. Where the call is inconclusive, the potency comes from a doubtful curve fit.

The chains behind the UniProt entries cited, without tags or fusion partners. Where a name states a change or a piece, a line headed by the entry shows the natural chain unless it says otherwise.
UniProt Q03431: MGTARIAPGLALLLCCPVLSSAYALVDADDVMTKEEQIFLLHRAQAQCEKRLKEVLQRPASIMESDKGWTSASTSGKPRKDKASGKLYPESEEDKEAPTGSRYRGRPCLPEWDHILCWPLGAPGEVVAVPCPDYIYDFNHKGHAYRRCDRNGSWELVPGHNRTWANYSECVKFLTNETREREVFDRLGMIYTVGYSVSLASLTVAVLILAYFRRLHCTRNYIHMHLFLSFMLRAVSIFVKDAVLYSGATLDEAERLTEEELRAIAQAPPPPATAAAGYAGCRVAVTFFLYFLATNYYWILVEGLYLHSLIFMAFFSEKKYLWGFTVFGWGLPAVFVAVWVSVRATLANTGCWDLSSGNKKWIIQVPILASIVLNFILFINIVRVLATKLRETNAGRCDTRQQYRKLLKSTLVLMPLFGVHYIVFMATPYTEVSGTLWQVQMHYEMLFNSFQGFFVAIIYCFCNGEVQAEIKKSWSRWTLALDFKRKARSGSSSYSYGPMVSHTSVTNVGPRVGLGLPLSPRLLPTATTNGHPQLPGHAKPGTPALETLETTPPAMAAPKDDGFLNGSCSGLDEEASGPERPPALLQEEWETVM

target: Parathyroid hormone/parathyroid hormone-related peptide receptor (Homo sapiens) (UniProt Q03431); test: qHTS for PTHR1 Agonists: Primary Screen; settings: HEK293 GP2 PTHR1 cells, GloSensor cAMP luminescence, 1 h; activation: at 115 µM (top of the series) unless noted; series mostly up to 115 µM; also: nearly all actives have a fitted effect of over 55% in size
In short: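 HEK-293-derived GP2 cells expressing PTHR1 and a GloSensor cAMP reporter, 3,000/well, plated overnight, given luciferin plus IBMX (each 0.5 mM as added) for 1 h at 37 °C, then compound for 1 h at 37 °C. Luminescence was read after 15 min at room temperature.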
Potency is read from the fitted curve at half-maximal effect.

Compound	outcome	activation	Potency
Nc1nc(SCC(=O)N2CCN(c3ccc(F)cc3)CC2)n[nH]1	inactive	–	–
CC(=O)c1cccc(NC(=O)CSCc2ccccc2)c1	inactive [at 57.5 µM]	–	–
CCOC(=O)c1ccc(NC(=O)c2nn(CC)cc2Br)cc1	–	inconclusive: -2.42% [activator] [at 57.5 µM]	–
Cc1ccc(S(=O)(=O)N(CC(=O)Nc2ccc3c(c2)OCO3)c2ccc(C)c(Cl)c2)cc1	–	–	inconclusive: 3.16 µM [activator, full curve, poor fit]
O=C(CCCO)c1ccc2c(c1)OCCO2	–	–	inconclusive: 4.47 µM [activator, partial curve]
COc1ccc(-c2nn(-c3cccc([N+](=O)[O-])c3)c3c2cnc2cc4c(cc23)OCO4)cc1	inactive	–	–
O=C(NCc1ccc(Cl)cc1)c1cccc(S(=O)(=O)N2CCCC2)c1	–	inconclusive: -40.7% [activator]	–
COc1cc(C(=O)OC2CCN(C)CC2)cc(OC)c1OC	–	inconclusive: 35% [activator] [at 57.5 µM]	–
Nc1nnc(SCC(=O)OCC(=O)Nc2ccc(Br)cc2)s1	–	inconclusive: 30.3% [activator]	–
CCCCC(=O)N(C)c1c(C)nc2ccc(C(=O)N3CCCCC3)cn12	–	–	inconclusive: 6.31 µM [activator, partial curve]
CCc1ccc(N2CCn3c2nc2c3c(=O)n(CCc3ccccc3)c(=O)n2C)cc1	–	–	active: 50.1 µM
COc1cccc(C(=O)N2CCN(S(=O)(=O)Cc3ccccc3)CC2)c1OC	–	–	inconclusive: 15.8 µM [activator, single point]
COc1ccc(CCN(C)C(=S)Nc2cccc(C)c2)cc1OC	–	–	inconclusive: 20 µM [activator, single point]
C=CCC[C@@H](Cc1ccc(F)cc1)C(=O)OC[C@@H](Cc1c[nH]c2ccccc12)NC(=O)[C@@H](CC=C)CC(=O)N(CCO)Cc1ccccc1	inactive	–	–
O=C(COc1ccccc1F)Nc1ccc(Cl)c(-c2nc3ccccc3[nH]2)c1	–	inactive: -20.3%	–
O=C(CCc1ccccc1)NCc1ccc2c(c1)CCN2C(=O)c1ccc(Cl)cc1	–	–	inconclusive: 126 µM [activator, single point]
Cc1ccc(NC(=O)CC2Sc3ccccc3NC2=O)c(Br)c1 (configuration not stated)	–	inconclusive: -43.1% [activator]	–
COc1ccc(S(=O)(=O)N2CCOCC2)cc1NC(=O)CCCSc1ccccc1	–	inactive: -12.9%	–
Cc1ccc(CS(=O)(=O)CC(C)(O)c2ccc(Cl)cc2)cc1 (configuration not stated)	–	inconclusive: 31.1% [activator]	–
COCc1[nH]nc2c1C(C1C=CCCC1)C(C#N)=C(N)O2 (configuration not stated)	–	inconclusive: 131% [activator] [at 57.5 µM]	–
Cc1cccnc1NC(=O)c1ccc(S(=O)(=O)N2CC(C)OC(C)C2)cc1 (configuration not stated)	–	–	inconclusive: 15.8 µM [activator, partial curve]
Cc1c(C(=O)Oc2cc(N)n(S(C)(=O)=O)n2)cccc1[N+](=O)[O-]	–	inactive: -2.95%	–
COc1ccccc1CCn1c(N)cc(=O)[nH]c1=O	–	–	inconclusive: 7.08 µM [activator, partial curve, poor fit]
COc1cc(/C=N/NC(=S)NC2CC3C=CC2C3)cc(OC)c1OC (configuration not stated)	–	inactive: -17%	–

Compound	outcome	activation	Potency
O=C(O)CCC(=O)N1CCN(c2cccc(Cl)c2)CC1	inactive [at 57.5 µM]	–	–
CCOC(=O)c1c(C)[nH]c(C)c1S(=O)(=O)N1CCCC(C(=O)Nc2cccc(C)n2)C1 (configuration not stated)	–	inconclusive: -40% [activator]	–
O=C(Nc1nc(COc2ccccc2)cs1)C12CC3CC(CC(C3)C1)C2	–	inactive: -24.2%	–
O=C(CSc1nnc(Cc2cccs2)n1C1CC1)NC1CCS(=O)(=O)C1 (configuration not stated)	–	–	inconclusive: 39.8 µM [activator, full curve, poor fit]
CN(CC(=O)O/N=C(\N)c1cccc([N+](=O)[O-])c1)S(=O)(=O)c1ccccc1	–	inactive: -11%	–
Cc1ccc(NC(=O)COc2ccc(S(=O)(=O)N3CCOCC3)cc2)cc1	–	–	inconclusive: 35.5 µM [activator, single point]
COc1ccc(-c2cc(C)no2)cc1S(=O)(=O)Nc1cccc(CN2CCCC2)c1	–	–	inconclusive: 0.767 µM [activator, full curve, poor fit]
CC(C)c1cnc2c(c1SCC(=O)O)c(=O)n(C)c(=O)n2C	–	–	inconclusive: 126 µM [activator, single point]
Cc1ccc(C2=NN(C(=O)CCC(=O)O)C(c3cccc([N+](=O)[O-])c3)C2)cc1 (configuration not stated)	–	–	inconclusive: 17.8 µM [activator, partial curve, poor fit]
CN(C(=O)c1c2c(nc3ccccc13)C(=O)N(C1CCCCC1)C2)c1ccc(F)cc1	–	–	inconclusive: 44.7 µM [activator, partial curve, poor fit]
Cc1ccc(C)c(N2CCN(c3nc4ccc(Cl)cc4n4cnnc34)CC2)c1	–	inconclusive: 33.8% [activator]	–
CS(=O)(=O)NCc1nnc(SCc2ccccc2C(F)(F)F)o1	–	–	inconclusive: 28.2 µM [activator, partial curve, poor fit]
N#Cc1cc2c(=O)n3ccccc3nc2n(CCCN2CCOCC2)c1=O	–	inactive: -2.55%	–
O=C(O)C1C2CCC(C2)C1C(=O)NCc1ccco1 (configuration not stated)	–	–	inconclusive: 3.55 µM [activator, single point]
CC1CCCN(Cc2ccc(OCc3ccccc3)cc2)C1 (configuration not stated)	–	–	inconclusive: 56.2 µM [activator, partial curve, poor fit]
CCN(CC)CCSc1nnc2c3ccccc3n(Cc3ccccc3)c2n1	–	inconclusive: -29.1% [activator]	–
CSc1sccc1/C=N/O	inactive	–	–
COc1cccc(Nc2n[nH]c(=S)s2)c1	inactive	–	–
Cc1ccc(C(=O)O)cc1Nc1ncnc2sc3c(c12)CCC3	–	–	inconclusive: 89.1 µM [activator, partial curve, poor fit]
Cc1cc2c(c(=O)n1CCCn1ccnc1)C(c1ccco1)C(C#N)=C(N)O2 (configuration not stated)	–	inconclusive: 27.3% [activator] [at 57.5 µM]	–
O=C(NNC(=O)c1ccc(SCC2CCCO2)c([N+](=O)[O-])c1)c1ccc(F)cc1 (configuration not stated)	–	inconclusive: 114% [activator] [at 57.5 µM]	–
O=C(Nn1cnnc1)c1ccc(OC(F)(F)C(F)C(F)(F)F)cc1 (configuration not stated)	–	–	inconclusive: 89.1 µM [activator, single point]
Cc1ccc(C(=O)Nc2c(C)cc(C)c3cccnc23)cc1	–	inconclusive: 32.2% [activator]	–
CN(Cc1ccccc1)CC(O)COc1ccc(CNCCCOc2cccnc2)cc1 (configuration not stated)	–	inactive: 6.41%	–

Of the compounds above, 15 have four or more nitrogen atoms.
Compound	outcome	activation	Potency
Nc1nc(SCC(=O)N2CCN(c3ccc(F)cc3)CC2)n[nH]1	inactive	–	–
COc1ccc(-c2nn(-c3cccc([N+](=O)[O-])c3)c3c2cnc2cc4c(cc23)OCO4)cc1	inactive	–	–
Nc1nnc(SCC(=O)OCC(=O)Nc2ccc(Br)cc2)s1	–	inconclusive: 30.3% [activator]	–
CCCCC(=O)N(C)c1c(C)nc2ccc(C(=O)N3CCCCC3)cn12	–	–	inconclusive: 6.31 µM [activator, partial curve]
CCc1ccc(N2CCn3c2nc2c3c(=O)n(CCc3ccccc3)c(=O)n2C)cc1	–	–	active: 50.1 µM
COCc1[nH]nc2c1C(C1C=CCCC1)C(C#N)=C(N)O2 (configuration not stated)	–	inconclusive: 131% [activator] [at 57.5 µM]	–
Cc1c(C(=O)Oc2cc(N)n(S(C)(=O)=O)n2)cccc1[N+](=O)[O-]	–	inactive: -2.95%	–
CCOC(=O)c1c(C)[nH]c(C)c1S(=O)(=O)N1CCCC(C(=O)Nc2cccc(C)n2)C1 (configuration not stated)	–	inconclusive: -40% [activator]	–
O=C(CSc1nnc(Cc2cccs2)n1C1CC1)NC1CCS(=O)(=O)C1 (configuration not stated)	–	–	inconclusive: 39.8 µM [activator, full curve, poor fit]
CN(CC(=O)O/N=C(\N)c1cccc([N+](=O)[O-])c1)S(=O)(=O)c1ccccc1	–	inactive: -11%	–
Cc1ccc(C)c(N2CCN(c3nc4ccc(Cl)cc4n4cnnc34)CC2)c1	–	inconclusive: 33.8% [activator]	–
N#Cc1cc2c(=O)n3ccccc3nc2n(CCCN2CCOCC2)c1=O	–	inactive: -2.55%	–
CCN(CC)CCSc1nnc2c3ccccc3n(Cc3ccccc3)c2n1	–	inconclusive: -29.1% [activator]	–
Cc1cc2c(c(=O)n1CCCn1ccnc1)C(c1ccco1)C(C#N)=C(N)O2 (configuration not stated)	–	inconclusive: 27.3% [activator] [at 57.5 µM]	–
O=C(Nn1cnnc1)c1ccc(OC(F)(F)C(F)C(F)(F)F)cc1 (configuration not stated)	–	–	inconclusive: 89.1 µM [activator, single point]

As entered above:
Value for `CSc1sccc1/C=N/O` under outcome: inactive
Value for `CCc1ccc(N2CCn3c2nc2c3c(=O)n(CCc3ccccc3)c(=O)n2C)cc1` under Potency: active: 50.1 µM

Next part:

Compound	outcome	activation	Potency
CC(=O)Nc1ccc(C(=O)c2ccccc2)cc1	inactive	–	–
CCOC(=O)c1cc(-c2ccccc2)n(CCCC(=O)Nc2ccc(C)cc2Cl)c1C	–	inconclusive: -33.4% [activator]	–
COc1ccc(-c2cccc(C(=O)Nc3ccc(C)cc3)c2)cc1	–	–	inconclusive: 3.16 µM [activator, single point]
O=C1C(=Cc2ccccn2)CCc2ccccc21	–	inactive: -36.4%	–
Fc1ccc(-c2nnc(SCc3cccnc3)o2)cc1	–	inactive: -15.8%	–
O=S(=O)(O)c1cc(O)c2cc(Nc3ccccc3)ccc2c1	–	inactive: -17.3%	–
Cc1ccc(-n2c3c(cc(C(=O)Nc4cccc(Cl)c4)c2=O)C(=O)CC(C)(C)C3)cc1	–	–	inconclusive: 100 µM [activator, single point]
Cc1ccc(NS(=O)(=O)c2ccc(C(=O)N3CCN(c4ncccn4)CC3)cc2)cc1	–	inconclusive: -80.3% [activator]	–
CCC(=O)Nc1nc(C)c(C(=O)NC2CCCCC2)s1	–	–	inconclusive: 44.7 µM [activator, single point]
Cc1cc(-c2cccs2)c2c(n1)sc1c(=O)[nH]c(=O)[nH]c12	–	–	inconclusive: 39.8 µM [activator, single point]
CCOC(=O)c1ccc2c(c1)nc(SCC(=O)N1CCCCC1)n2CC	–	inconclusive: -50.2% [activator] [at 57.5 µM]	–
CC1CN(S(=O)(=O)c2cccc(C(=O)Nc3ccccc3N3CCOCC3)c2)CC(C)O1 (configuration not stated)	–	inactive: -18.5%	–
COc1ccccc1-n1c(SCC(=O)N2CCOCC2)nc(O)c(Cc2ccccc2)c1=O	–	–	inconclusive: 50.1 µM [activator, partial curve, poor fit]
NNC(=O)CSc1cccc2cccnc12	–	inactive: -8.71%	–
COc1ccc(CNc2ccc(S(N)(=O)=O)cc2)c(OC)c1OC	–	–	inconclusive: 12.6 µM [activator, partial curve]
CC(c1cccs1)N(C)Cc1nc(CCc2ccccc2)no1 (configuration not stated)	–	inactive: -22%	–
CCOC(=O)C1=C(CSc2nc3ccccc3s2)NC(=O)NC1c1cc(C)ccc1C (configuration not stated)	–	inactive: -32.5% [at 57.5 µM]	–
CC1(C)C2CCC1(C)C(NC1=NCCC1)C2 (configuration not stated)	–	–	inconclusive: 22.4 µM [activator, single point]
Cc1ccc([C@@H]2CC=C(C(=O)O)[C@H](c3ccc(F)cc3)N2S(=O)(=O)c2ccc(C)cc2)cc1	–	inactive: -1.52%	–
CC(C)CC1(C)NC(=O)N(CC(=O)Nc2ccc3c(c2)CCC3)C1=O (configuration not stated)	–	–	inconclusive: 7.08 µM [activator, full curve, poor fit]
N#Cc1ccc(OCC(=O)NNC(=O)C2CCCCC2)cc1	–	–	inconclusive: 126 µM [activator, single point]
CCOC(=O)C1CCCN(C(=O)Cn2nc(C)c3c(C)n(-c4ccccc4)nc3c2=O)C1 (configuration not stated)	–	–	inconclusive: 0.767 µM [activator, full curve, poor fit]
CCn1c(SCC(=O)Nc2ccc(Br)cc2)nc2sc3c(c2c1=O)CCN(C)C3	–	–	inconclusive: 112 µM [activator, single point]
O=C(N/N=C/c1ccc(O)cc1O)c1ccncc1	inactive	–	–
